Source: PubChem BioAssay AID1259254 (NCATS, 2017)

- Aim: 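Finding genes that stop cells copying their DNA twice in one cycle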 (primary screen)
- System: human HCT116 colorectal cancer cells
- Reagent: single siRNA against human genes
- Timing: 3 days
- Measurement: 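Nuclei stained with Hoechst and imaged; cell-cycle phase assigned by DNA content; G2 share scaled per plate, non-targeting siRNA 0%, GMNN siRNA 100%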
- Reading the numbers: G2 robust z-score: higher = more G2 cells, more excess DNA replication
- Active means: 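An siRNA counts as active if its G2 robust z-score lies at least 5 MADs above the screen median; here such calls match roughly 38% of GMNN control or more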
Here is an unselected part of about 59,000 reagents. About 1,550 of them (2.6%) count as active. 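G2 share is only a proxy for re-replication; each gene was hit by three separate siRNAs, and active genes were retested.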 Reagents against one gene are numbered here. Not all columns of the deposit are shown. Reagent sequences are not shown. Not given: the amount of reagent.

With GPC5 (GeneID 2262) #1, what does the deposit list?
G2 robust z-score: -0.757; call: inactive

Which result is listed for GPC5 (GeneID 2262) #2?
G2 robust z-score: -1.14; call: inactive

For GPC5 (GeneID 2262) #3, how do the results read?
G2 robust z-score: 1.19; call: inactive

How did the screen score FBXO36 (GeneID 130888) #1?
G2 robust z-score: 0.266; call: inactive

For FBXO36 (GeneID 130888) #2, what does the deposit list?
G2 robust z-score: 4.67; call: inactive

For FBXO36 (GeneID 130888) #3, what was measured?
G2 robust z-score: 1.64; call: inactive

For GLIPR1 (GeneID 11010) #1, what does the deposit list?
G2 robust z-score: 0.403; call: inactive

What did the screen give for GLIPR1 (GeneID 11010) #2?
G2 robust z-score: 0.992; call: inactive

With GLIPR1 (GeneID 11010) #3, what does the deposit list?
G2 robust z-score: -1.08; call: inactive

How did the screen score PHRF1 (GeneID 57661) #1?
G2 robust z-score: 0.79; call: inactive

With PHRF1 (GeneID 57661) #2, what does the deposit list?
G2 robust z-score: 0.197; call: inactive

Which result is listed for PHRF1 (GeneID 57661) #3?
G2 robust z-score: -0.302; call: inactive

What is on record for ELAC1 (GeneID 55520) #1?
G2 robust z-score: -1.61; call: inactive

With ELAC1 (GeneID 55520) #2, what was measured?
G2 robust z-score: -0.802; call: inactive

What is on record for ELAC1 (GeneID 55520) #3?
G2 robust z-score: -0.567; call: inactive

How did the screen score MYOM1 (GeneID 8736) #1?
G2 robust z-score: -0.209; call: inactive

What did the screen give for MYOM1 (GeneID 8736) #2?
G2 robust z-score: -0.0857; call: inactive

With MYOM1 (GeneID 8736) #3, what does the deposit list?
G2 robust z-score: 2.99; call: inactive

What did the screen give for ZNF416 (GeneID 55659) #1?
G2 robust z-score: 1.84; call: inactive

With ZNF416 (GeneID 55659) #2, how do the results read?
G2 robust z-score: -1.14; call: inactive

With ZNF416 (GeneID 55659) #3, how do the results read?
G2 robust z-score: 0.419; call: inactive

What did the screen give for MSH2-OT1 (GeneID 644093) #1?
G2 robust z-score: 2.04; call: inactive

With MSH2-OT1 (GeneID 644093) #2, what was measured?
G2 robust z-score: 0.0637; call: inactive

What is on record for MSH2-OT1 (GeneID 644093) #3?
G2 robust z-score: -0.159; call: inactive

Targets above whose target name begins with E or e (3):
ELAC1 (GeneID 55520) #1: G2 robust z-score = -1.61; call = inactive
ELAC1 (GeneID 55520) #2: G2 robust z-score = -0.802; call = inactive
ELAC1 (GeneID 55520) #3: G2 robust z-score = -0.567; call = inactive
